Measured values taken from the supplement of paper PMC12067093, “Discovery and optimisation of a covalent ligand for TRIM25 and its application to targeted protein ubiquitination” (Chemical Science, 2025).
The list shows a part of the results.

Protein sequences, listed by entry. Tags and fused reporters are not part of them. Lines headed by an entry give the natural chain unless they say otherwise; changes in a name come on top.
UniProt O43847: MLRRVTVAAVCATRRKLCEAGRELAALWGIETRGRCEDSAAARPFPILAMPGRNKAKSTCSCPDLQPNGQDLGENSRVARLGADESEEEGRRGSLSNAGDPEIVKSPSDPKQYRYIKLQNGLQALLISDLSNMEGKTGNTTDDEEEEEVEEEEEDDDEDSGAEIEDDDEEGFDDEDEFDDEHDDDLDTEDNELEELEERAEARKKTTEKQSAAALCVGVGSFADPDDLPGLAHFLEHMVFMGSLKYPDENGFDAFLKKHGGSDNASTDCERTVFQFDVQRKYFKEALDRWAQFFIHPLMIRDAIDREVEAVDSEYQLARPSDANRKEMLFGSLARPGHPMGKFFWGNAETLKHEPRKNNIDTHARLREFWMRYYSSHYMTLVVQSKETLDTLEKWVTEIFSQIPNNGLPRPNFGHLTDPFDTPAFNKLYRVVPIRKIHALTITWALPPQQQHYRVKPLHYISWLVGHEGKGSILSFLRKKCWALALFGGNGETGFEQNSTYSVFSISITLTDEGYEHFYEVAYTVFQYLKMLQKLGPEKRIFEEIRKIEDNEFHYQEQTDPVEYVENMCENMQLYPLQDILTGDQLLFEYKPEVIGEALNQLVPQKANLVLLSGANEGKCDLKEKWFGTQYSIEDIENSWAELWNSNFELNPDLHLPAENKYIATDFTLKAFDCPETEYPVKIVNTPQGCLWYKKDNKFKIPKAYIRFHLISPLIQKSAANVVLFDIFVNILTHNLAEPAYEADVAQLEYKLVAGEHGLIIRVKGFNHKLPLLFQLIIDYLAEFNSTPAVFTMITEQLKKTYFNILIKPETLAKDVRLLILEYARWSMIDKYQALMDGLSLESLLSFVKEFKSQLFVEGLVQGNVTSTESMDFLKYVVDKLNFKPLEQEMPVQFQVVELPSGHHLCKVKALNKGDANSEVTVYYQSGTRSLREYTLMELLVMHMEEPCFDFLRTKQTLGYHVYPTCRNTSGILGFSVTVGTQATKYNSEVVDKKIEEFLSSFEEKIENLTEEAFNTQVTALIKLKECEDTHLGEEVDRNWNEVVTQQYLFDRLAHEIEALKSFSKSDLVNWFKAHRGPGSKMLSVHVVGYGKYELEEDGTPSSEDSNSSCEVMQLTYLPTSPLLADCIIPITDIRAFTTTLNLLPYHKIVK
UniProt Q86UT6, whole entry, looked up: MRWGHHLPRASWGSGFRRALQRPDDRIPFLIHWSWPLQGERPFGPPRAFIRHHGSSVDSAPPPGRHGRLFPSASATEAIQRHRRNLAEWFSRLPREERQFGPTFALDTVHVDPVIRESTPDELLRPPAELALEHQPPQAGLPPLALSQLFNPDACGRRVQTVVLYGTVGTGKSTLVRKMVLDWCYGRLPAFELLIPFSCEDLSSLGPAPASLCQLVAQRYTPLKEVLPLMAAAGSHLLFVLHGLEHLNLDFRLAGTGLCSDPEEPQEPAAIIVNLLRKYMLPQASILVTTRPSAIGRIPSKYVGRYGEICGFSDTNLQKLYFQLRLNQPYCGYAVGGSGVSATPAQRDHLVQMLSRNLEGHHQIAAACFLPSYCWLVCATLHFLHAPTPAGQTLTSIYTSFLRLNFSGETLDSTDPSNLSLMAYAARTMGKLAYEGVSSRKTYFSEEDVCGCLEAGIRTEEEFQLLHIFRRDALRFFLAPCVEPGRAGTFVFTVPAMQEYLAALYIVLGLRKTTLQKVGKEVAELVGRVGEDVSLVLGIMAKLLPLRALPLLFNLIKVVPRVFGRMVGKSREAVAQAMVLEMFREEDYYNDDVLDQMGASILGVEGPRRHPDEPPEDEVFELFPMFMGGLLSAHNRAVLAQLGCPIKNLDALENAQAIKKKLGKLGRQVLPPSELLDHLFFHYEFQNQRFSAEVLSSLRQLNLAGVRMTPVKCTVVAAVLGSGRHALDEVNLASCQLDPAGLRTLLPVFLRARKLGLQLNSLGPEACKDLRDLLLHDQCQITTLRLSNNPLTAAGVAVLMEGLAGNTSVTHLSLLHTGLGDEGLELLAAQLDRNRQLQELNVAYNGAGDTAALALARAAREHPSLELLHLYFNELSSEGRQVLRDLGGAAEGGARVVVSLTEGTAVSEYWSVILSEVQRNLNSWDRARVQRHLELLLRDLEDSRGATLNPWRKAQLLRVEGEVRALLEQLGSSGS
UniProt Q16656: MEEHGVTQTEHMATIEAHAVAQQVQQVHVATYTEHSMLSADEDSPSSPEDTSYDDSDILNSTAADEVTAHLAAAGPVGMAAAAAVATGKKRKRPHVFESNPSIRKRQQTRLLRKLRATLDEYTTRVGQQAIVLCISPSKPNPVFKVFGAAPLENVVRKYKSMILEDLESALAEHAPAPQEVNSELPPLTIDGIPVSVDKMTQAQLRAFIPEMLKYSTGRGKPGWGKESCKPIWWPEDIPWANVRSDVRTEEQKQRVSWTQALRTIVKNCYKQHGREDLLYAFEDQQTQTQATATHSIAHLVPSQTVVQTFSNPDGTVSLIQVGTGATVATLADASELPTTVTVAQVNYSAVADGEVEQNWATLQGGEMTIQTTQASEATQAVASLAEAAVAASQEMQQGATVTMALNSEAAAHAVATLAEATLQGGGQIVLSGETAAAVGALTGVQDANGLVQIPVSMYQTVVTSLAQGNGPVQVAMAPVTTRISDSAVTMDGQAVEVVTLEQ
UniProt Q9BVI4: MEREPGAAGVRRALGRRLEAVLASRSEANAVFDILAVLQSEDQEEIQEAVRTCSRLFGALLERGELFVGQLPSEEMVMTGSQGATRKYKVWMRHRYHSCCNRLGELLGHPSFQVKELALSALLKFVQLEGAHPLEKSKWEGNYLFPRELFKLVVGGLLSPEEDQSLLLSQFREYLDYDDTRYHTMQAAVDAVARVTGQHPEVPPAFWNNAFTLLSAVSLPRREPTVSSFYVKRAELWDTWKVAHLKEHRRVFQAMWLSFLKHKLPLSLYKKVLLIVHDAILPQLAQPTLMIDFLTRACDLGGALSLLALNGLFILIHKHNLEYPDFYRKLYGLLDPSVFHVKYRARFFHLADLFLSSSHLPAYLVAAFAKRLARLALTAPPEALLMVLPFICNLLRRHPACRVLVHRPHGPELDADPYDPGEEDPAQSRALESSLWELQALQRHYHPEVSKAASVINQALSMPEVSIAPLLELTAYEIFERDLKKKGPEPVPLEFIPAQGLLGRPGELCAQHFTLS
UniProt Q9UK39: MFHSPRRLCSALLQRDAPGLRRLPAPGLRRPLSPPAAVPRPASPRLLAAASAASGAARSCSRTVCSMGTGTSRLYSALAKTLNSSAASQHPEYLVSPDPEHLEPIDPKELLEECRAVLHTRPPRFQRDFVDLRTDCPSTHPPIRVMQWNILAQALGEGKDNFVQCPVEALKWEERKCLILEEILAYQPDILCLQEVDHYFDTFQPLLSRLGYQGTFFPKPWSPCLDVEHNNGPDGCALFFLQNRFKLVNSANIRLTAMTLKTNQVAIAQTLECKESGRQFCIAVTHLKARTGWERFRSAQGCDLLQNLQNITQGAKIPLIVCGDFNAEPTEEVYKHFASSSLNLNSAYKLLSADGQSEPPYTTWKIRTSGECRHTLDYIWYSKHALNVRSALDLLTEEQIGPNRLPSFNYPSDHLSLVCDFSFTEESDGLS
UniProt Q96CB9: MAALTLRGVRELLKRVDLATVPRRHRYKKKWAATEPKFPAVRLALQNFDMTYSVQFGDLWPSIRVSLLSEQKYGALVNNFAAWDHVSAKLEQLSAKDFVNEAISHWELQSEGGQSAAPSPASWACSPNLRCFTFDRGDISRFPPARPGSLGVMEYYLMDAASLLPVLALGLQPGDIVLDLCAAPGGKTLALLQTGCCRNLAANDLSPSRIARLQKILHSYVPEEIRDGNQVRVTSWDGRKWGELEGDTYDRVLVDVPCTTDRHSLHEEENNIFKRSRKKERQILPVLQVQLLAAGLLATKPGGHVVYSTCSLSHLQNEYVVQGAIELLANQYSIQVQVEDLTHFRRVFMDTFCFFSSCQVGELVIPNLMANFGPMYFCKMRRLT
UniProt Q96MF7: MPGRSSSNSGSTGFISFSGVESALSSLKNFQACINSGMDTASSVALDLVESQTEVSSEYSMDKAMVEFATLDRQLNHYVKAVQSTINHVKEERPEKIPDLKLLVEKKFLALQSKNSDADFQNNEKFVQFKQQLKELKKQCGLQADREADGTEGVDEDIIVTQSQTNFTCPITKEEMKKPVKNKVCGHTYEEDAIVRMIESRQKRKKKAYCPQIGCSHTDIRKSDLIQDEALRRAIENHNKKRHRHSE
UniProt Q96P11: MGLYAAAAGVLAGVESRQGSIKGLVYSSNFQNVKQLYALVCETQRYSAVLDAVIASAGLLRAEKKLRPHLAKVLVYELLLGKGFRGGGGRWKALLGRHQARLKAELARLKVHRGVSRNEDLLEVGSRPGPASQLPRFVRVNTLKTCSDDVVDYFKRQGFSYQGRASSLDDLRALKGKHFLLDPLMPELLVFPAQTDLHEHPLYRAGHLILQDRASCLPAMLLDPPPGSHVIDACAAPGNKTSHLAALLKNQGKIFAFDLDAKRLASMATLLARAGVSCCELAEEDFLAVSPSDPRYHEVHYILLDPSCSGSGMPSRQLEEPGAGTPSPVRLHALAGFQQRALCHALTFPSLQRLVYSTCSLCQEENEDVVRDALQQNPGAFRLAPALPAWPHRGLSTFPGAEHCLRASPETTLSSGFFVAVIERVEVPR
UniProt O00567: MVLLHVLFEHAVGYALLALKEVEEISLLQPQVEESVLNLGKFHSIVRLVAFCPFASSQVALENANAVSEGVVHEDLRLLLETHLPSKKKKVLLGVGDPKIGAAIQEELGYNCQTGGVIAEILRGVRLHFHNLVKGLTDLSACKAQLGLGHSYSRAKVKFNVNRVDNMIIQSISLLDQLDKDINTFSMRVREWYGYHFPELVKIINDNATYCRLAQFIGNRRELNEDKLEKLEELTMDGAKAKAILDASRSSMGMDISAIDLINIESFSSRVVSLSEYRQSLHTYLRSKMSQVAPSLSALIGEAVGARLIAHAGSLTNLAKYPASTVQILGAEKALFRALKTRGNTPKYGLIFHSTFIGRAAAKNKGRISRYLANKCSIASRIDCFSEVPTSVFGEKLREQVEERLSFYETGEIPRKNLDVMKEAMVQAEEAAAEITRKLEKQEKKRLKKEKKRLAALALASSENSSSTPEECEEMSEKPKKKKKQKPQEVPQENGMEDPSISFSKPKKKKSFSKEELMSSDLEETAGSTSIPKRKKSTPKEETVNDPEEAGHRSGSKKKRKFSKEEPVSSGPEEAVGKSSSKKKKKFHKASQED
UniProt O96028: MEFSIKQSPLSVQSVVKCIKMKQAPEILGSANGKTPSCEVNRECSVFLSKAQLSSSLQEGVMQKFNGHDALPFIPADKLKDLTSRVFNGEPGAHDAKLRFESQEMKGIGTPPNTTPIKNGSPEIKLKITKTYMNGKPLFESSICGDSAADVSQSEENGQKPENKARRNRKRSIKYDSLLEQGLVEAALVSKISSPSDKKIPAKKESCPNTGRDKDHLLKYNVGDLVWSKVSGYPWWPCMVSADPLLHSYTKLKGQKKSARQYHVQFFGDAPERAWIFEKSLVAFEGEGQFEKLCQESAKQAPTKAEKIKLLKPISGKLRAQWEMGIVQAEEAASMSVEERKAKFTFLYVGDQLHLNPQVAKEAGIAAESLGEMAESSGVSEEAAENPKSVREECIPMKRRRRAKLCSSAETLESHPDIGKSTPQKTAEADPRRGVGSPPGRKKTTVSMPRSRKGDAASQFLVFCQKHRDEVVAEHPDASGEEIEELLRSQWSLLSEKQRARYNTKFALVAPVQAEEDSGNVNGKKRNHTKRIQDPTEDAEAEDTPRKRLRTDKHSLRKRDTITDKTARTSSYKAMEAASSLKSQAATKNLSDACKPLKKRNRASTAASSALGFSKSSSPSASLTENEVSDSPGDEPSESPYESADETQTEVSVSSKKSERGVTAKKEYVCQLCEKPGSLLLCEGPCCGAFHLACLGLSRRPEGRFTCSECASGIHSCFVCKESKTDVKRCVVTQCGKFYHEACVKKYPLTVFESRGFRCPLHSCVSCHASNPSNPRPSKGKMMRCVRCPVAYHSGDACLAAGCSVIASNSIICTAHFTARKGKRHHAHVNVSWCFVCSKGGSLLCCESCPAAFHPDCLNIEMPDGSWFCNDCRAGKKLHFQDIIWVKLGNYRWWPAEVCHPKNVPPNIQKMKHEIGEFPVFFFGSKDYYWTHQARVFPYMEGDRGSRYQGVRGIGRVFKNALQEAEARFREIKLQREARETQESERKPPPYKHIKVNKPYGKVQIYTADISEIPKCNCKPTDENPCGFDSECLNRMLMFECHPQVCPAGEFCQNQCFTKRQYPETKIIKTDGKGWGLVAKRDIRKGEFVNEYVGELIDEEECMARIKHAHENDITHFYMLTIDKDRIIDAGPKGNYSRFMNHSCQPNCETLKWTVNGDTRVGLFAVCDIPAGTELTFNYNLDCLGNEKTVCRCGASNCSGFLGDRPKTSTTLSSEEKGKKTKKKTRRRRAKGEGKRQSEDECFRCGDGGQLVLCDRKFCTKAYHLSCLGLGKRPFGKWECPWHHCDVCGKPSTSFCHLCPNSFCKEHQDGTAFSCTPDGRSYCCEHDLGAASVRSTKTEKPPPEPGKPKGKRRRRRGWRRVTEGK

Compound: Cc1cc(ccc1-c1ccccc1)C(=O)N1CCCN(CC1)C(=O)CCl [compound 10]
Assay: probe-labelled cysteine peptide fold change vs DMSO (competition) (log2 fold change); higher = less target engagement (more negative = stronger competition)
Settings: THP-1, incubation time: 4 h
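Note: competitive profiling in live THP-1 cells: cysteine peptides tagged with an iodoacetamide desthiobiotin (IA-DTB) probe, intensity after compound treatment relative to DMSO-treated cells.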

Target	probe-labelled cysteine peptide fold change (10 µM)	probe-labelled cysteine peptide fold change (50 µM)
NMI_Q13287_295_CSLGQPHIAYFEE (UniProt Q13287)	0.00396	-0.203
NRDC_O43847_1027_ECEDTHLGEEVDRNWNEVVTQQYLFDR (UniProt O43847)	0.0585	0.155
NLRX1_Q86UT6_735_HALDEVNLASCQLDPAGLR (UniProt Q86UT6)	0.0144	0.118
NNT_Q13423_1073_KTCDALQAK (UniProt Q13423)	-0.378	-0.465
NPC1_O15118_42_RYNCEYSGPPKPLPK (UniProt O15118)	-0.0248	-0.0583
NOP2_P46087_487_CAHLQK (UniProt P46087)	-0.0171	-0.182
NRF1_Q16656_134_VGQQAIVLCISPSKPNPVFK (UniProt Q16656)	0.173	-0.238
NRDC_O43847_674_AFDCPETEYPVK (UniProt O43847)	-0.047	0.101
NOTCH1_P46531_1293_VNDFHCECR (UniProt P46531)	-0.159	-0.153
NOC4L_Q9BVI4_99_YHSCCNR (UniProt Q9BVI4)	0.197	0.546
NOL11_Q9H8H0_557_CNNCDQELNK (UniProt Q9H8H0)	0.0774	-0.199
NOL6_Q9H6R4_739_LDKPCPAYVEPMTVVCHLEGSGQWPQDAEAVQR (UniProt Q9H6R4)	-0.0229	0.111
NOTCH1_P46531_922_NCETDIDDCRPNPCHNGGSCTDGINTAFCDCLPGFR (UniProt P46531)	-0.181	0.000888
NOCT_Q9UK39_322_IPLIVCGDFNAEPTEEVYK (UniProt Q9UK39)	0.0663	-0.129
NSUN4_Q96CB9_258_VLVDVPCTTDR (UniProt Q96CB9)	-0.104	-0.136
NPC2_P61916_42+47_EVNVSPCPTQPCQLSK (UniProt P61916)	-0.0371	0.0457

Target	probe-labelled cysteine peptide fold change (10 µM)	probe-labelled cysteine peptide fold change (50 µM)
NLRX1_Q86UT6_767_KLGLQLNSLGPEACK (UniProt Q86UT6)	0.0892	-0.182
NSD1_Q96L73_715_QKPLISNSHTDHLMGCTK (UniProt Q96L73)	-0.125	-0.494
NLE1_Q9NVX2_251_ILTGHTQSVTCLR (UniProt Q9NVX2)	-0.0421	0.128
NSMCE2_Q96MF7_215_AYCPQIGCSHTDIR (UniProt Q96MF7)	0.456	0.181
NLRP2_Q9NX02_929_SSLLCLDLGLNHIGVK (UniProt Q9NX02)	-0.271	-0.24
NSUN5_Q96P11_308_YHEVHYILLDPSCSGSGMPSR (UniProt Q96P11)	-0.414	-0.515
NOL6_Q9H6R4_665_CYDDLSR (UniProt Q9H6R4)	0.19	0.131
NSMAF_Q92636_158_ASCLDK (UniProt Q92636)	0.182	0.0358
NSF_P46459_264_GILLYGPPGCGK (UniProt P46459)	-0.0833	-0.0265
NOP56_O00567_142_GLTDLSACK (UniProt O00567)	-0.345	0.0443
NLRX1_Q86UT6_481_FFLAPCVEPGR (UniProt Q86UT6)	0.293	0.279
NSD2_O96028_1323+1324_SYCCEHDLGAASVR (UniProt O96028)	-0.0346	-0.49
NSUN4_Q96CB9_197_TLALLQTGCCR (UniProt Q96CB9)	-0.0373	-0.41
NLN_Q9BYT8_153_IVHLQETCDLGK (UniProt Q9BYT8)	-0.194	-0.0185
NR3C1_P04150_463_NDCIIDK (UniProt P04150)	-0.0776	-0.53

2 records drawn at random from those above, as already listed:
Target	probe-labelled cysteine peptide fold change (10 µM)	probe-labelled cysteine peptide fold change (50 µM)
NSD2_O96028_1323+1324_SYCCEHDLGAASVR (UniProt O96028)	-0.0346	-0.49
NSUN4_Q96CB9_197_TLALLQTGCCR (UniProt Q96CB9)	-0.0373	-0.41
